Source: patent US20240024520A1, “AUTONOMOUS KNOB DOMAIN PEPTIDES” (UCB BIOPHARMA SRL, priority 2020, published 2024)
No constants are given. Whether binding was seen depends on the method and setting. Some results given as binding are weak or reduced against the parent protein; the word gives no strength.

Chains of the proteins cited; added tags and fusions are not shown. Residues count along the entry.
UniProt P08650, residues 19-1681: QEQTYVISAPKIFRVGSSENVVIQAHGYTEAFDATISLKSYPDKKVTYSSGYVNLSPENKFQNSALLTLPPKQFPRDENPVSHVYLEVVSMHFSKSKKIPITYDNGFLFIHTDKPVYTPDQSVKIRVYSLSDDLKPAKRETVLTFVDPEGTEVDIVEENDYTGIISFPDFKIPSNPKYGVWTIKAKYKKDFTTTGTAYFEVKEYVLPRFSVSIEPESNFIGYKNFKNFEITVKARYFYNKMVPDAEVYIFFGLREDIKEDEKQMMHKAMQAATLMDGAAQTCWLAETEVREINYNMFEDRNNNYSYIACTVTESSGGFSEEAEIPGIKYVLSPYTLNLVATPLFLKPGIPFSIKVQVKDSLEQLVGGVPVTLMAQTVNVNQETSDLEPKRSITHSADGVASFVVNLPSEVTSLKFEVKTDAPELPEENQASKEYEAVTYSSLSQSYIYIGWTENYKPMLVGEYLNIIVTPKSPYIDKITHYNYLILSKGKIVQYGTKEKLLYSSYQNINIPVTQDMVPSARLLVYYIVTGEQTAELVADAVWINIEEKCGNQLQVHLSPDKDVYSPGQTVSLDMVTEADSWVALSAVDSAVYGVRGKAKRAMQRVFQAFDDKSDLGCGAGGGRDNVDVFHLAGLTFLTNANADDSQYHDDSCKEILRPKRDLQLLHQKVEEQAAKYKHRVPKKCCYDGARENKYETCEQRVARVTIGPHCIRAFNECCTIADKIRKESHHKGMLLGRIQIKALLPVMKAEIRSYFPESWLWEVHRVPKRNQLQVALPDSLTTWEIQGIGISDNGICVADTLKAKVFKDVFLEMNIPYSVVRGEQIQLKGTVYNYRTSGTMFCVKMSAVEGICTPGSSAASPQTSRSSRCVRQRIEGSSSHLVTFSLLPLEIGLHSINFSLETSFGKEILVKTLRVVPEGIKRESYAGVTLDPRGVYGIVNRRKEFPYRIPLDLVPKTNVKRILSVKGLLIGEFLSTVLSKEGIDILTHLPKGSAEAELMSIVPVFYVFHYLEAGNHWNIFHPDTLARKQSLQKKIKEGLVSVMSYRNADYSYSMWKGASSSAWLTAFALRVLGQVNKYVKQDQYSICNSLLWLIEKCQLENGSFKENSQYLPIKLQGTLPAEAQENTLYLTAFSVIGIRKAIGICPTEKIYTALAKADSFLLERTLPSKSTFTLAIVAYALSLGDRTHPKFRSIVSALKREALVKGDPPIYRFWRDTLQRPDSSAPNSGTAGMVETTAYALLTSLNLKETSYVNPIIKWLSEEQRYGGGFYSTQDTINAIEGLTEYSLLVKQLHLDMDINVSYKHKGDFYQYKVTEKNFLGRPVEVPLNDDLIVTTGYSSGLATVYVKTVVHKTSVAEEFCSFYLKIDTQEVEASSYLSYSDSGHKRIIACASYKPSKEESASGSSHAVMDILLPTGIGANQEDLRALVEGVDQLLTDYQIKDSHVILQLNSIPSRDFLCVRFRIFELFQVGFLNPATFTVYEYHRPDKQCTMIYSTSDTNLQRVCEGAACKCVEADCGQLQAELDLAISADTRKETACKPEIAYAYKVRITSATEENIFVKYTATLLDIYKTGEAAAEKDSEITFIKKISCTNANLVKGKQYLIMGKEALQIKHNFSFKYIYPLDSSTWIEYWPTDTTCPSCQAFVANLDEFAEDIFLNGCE

The binders below were run against rat C5 (Rattus norvegicus (rat)) (UniProt P08650) (assay: monoclonal phage ELISA).

Binder	binding
ultralong CDR-H3 of SEQ ID NO: 521 displayed on M13 phage (protein, not shown: large carriers) TTVHQKTKKTCPLGYNLNDRCDHFNTCRVEKCCQNGVVNAYGICEYAGGNATYTYQWYVH	binds
ultralong CDR-H3 of SEQ ID NO: 522 displayed on M13 phage (protein, not shown: large carriers) TTVHQRTKKTCPLGYAINDRCDDLKTCGPDECCLNGVVNAYGICEYEGESATHTYEWYVD	binds
ultralong CDR-H3 of SEQ ID NO: 523 displayed on M13 phage (protein, not shown: large carriers) TTVHQKTEPSCPYGYIYTGGCHTTYGCGNYVCYPGSGPPRVGDVSVSYTYEWYVD	binds
ultralong CDR-H3 of SEQ ID NO: 525 displayed on M13 phage (protein, not shown: large carriers) TTVVQKTQKSEALCPDGYTRSGRPGCYYGCPDSTCCSRTRTLHVSEHCIAPAYTYNYEWYVD	binds
ultralong CDR-H3 of SEQ ID NO: 526 displayed on M13 phage (protein, not shown: large carriers) TTVHQRTLKNRNCPDGYGYQRHCTVGEDCTEGCCDNYGRCTTYTDTYTYELYVE	binds
ultralong CDR-H3 of SEQ ID NO: 527 displayed on M13 phage (protein, not shown: large carriers) TTVHQKTNRQESCPGSSGDRTICERSWSCGGYHCSAYDTWGAGGSSDCGTCTYTYTYEWYVD	binds
ultralong CDR-H3 of SEQ ID NO: 528 displayed on M13 phage (protein, not shown: large carriers) TTVHQRTKKTCPLGYDLNDRCDHFNTCRVEECCKNGVVNAYGICEYAGGSATYTYKWYVD	binds
ultralong CDR-H3 of SEQ ID NO: 552 displayed on M13 phage (protein, not shown: large carriers) TTVHQRTKEERTCPSGCSWFSGCWDTYRCGPSVCCRDGRYGCAAIICRDTYEWYVD	binds
ultralong CDR-H3 of SEQ ID NO: 553 displayed on M13 phage (protein, not shown: large carriers) TTVHQKTKKTCPRGYHYNDRCEFFNTCRVEECCLNGVVNTYGICEYEGGSATYTYEWYVD	binds
ultralong CDR-H3 of SEQ ID NO: 554 displayed on M13 phage (protein, not shown: large carriers) TTVHQKTKKTCPRGYHYNDRCDFFNTCRVEECCLNGVVNTYGICEYEGGSATYTYEWYVD	binds
ultralong CDR-H3 of SEQ ID NO: 555 displayed on M13 phage (protein, not shown: large carriers) TTVHQKTKKTCPRGYHYNDRCEFFNTCRVEECCLNGVVNTYGICEYEGGSATYTYEWYVD	binds
ultralong CDR-H3 of SEQ ID NO: 556 displayed on M13 phage (protein, not shown: large carriers) TTVHQKTTRVNSCPDGYGYGDGYCYDSGCSASDCYGVDALYSYGHCGCSIYTERPRYEWYVD	binds
ultralong CDR-H3 of SEQ ID NO: 557 displayed on M13 phage (protein, not shown: large carriers) TTVHLKTKKSCPLGYAINDRCDDLKTCGPDECCLNGVVNAYGICEYEGESATHTYEWYVD	binds
ultralong CDR-H3 of SEQ ID NO: 558 displayed on M13 phage (protein, not shown: large carriers) TTVHQKTKKSCPLGYAINDRCDDLKTCGPDECCLNGVVNAYGICEYEGESATHTYELYVE	binds

Each binder was assayed against rat C5 (Rattus norvegicus (rat)) (UniProt P08650) (assay: told with the rat pharmacokinetics).

Binder	binding
VCPDGFNWGYGCAAGSSRFCTRHDWCCYDERADSHTYGFCTGNRV [K8 knob domain peptide, chemically synthesised, free energy method]	binds

Each binder was assayed against rat C5 (Rattus norvegicus (rat)) (UniProt P08650) (assay: SPR multi-cycle kinetics, rat C5 immobilised).

Binder	binding
VCPDGFNWGYGCAAGSSRFCTRHDWCCYDERADSHTYGFCTGNRV [K8 knob domain peptide, chemically synthesised, free energy method]	binds
